# Laboratory results as given in PubChem BioAssay AID1347076 (National Center for Advancing Translational Sciences (NCATS), 2019).
# In all, about 400,000 compounds went through this assay and about 13,000 (3.2%) were called active. This list was built around the results that the source calls inconclusive (neither active nor inactive); the mix of calls is not that of the screen. The call rests on the fitted dose curve; in most records, active means well fitted cell-killing curve with a large enough effect; inconclusive means small, poorly fitted or top-dose-only effect, or effect the other way; inactive means flat fitted curve, though single readings scatter. Potencies of inconclusive entries are doubtful fits and often do not repeat.
# Assay: qHTS assay for MDR1-selective chemotherapeutics: Primary screen using the drug-selected MDR subline cells KB-V1; further: nearly all actives have a fitted effect of over 60% in size
# Details: KB-V1 MDR cells viability, CellTiter-Glo, 72 h; series mostly up to 46.1 µM
# In short: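 KB-V1, DMEM (no phenol red) + 10% FBS; cpd pin-transferred, titration series; 72 h, 37 degrees C; CellTiter-Glo, luminescence. Data normalized, curve-fit.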
# Potency means the concentration at half of the fitted maximal effect.
row,SMILES,Potency
1,N#C/C(=C\c1ccc(-c2ccccc2)cc1)c1nc(-c2ccco2)cs1,inactive
2,CC1(C)Cc2c(sc3nc(-c4ccccc4)n(N)c(=O)c23)CO1,inactive
3,COc1ccc2cc(C3CC(c4ccco4)=NN3C(=O)CCC(=O)O)c(Cl)nc2c1 (configuration not stated),"inconclusive: 29.1 µM [rising, single point]"
4,C=CCn1c(SCC(=O)c2ccccc2)nnc1-c1cc2ccccc2o1,"inconclusive: 5.8 µM [cytotoxic, partial curve]"
5,Cc1ccc(NC(=O)C[n+]2cc(-c3ccccc3)n3c2CCC3)c(C)c1,"inconclusive: 29.1 µM [rising, single point]"
6,COc1ccc(-c2csc(-n3ncc(C(=O)O)c3C(F)(F)F)n2)cc1,"inconclusive: 14.6 µM [rising, partial curve, poor fit]"
7,COCCNC(=O)/C(C#N)=C/c1cn(CC(=O)NCc2ccco2)c2ccccc12,inactive
8,Cc1cc(N2CCOCC2)n2nc(-c3cccc(F)c3)cc2n1,"inconclusive: 18.4 µM [cytotoxic, single point]"
9,Cc1cc(/C(N)=N/OC(=O)Nc2ccccc2)no1,"inconclusive: 29.1 µM [rising, single point]"
10,CCCC1=C(C(=O)OCC)C(/C=C/c2ccccc2)n2ncnc2N1 (configuration not stated),"inconclusive: 2.24 µM [cytotoxic, partial curve, poor fit]"
11,Cc1ccc(-n2c(Cc3cccn3C)nnc2SCC(=O)N2CCN(c3ccccc3)CC2)cc1,"inconclusive: 16.4 µM [cytotoxic, partial curve, poor fit]"
12,CCOC(=O)c1c(NC(=O)COc2ncnc3sccc23)sc2c1CCC2,active: 3.26 µM
13,CC(Oc1ccc(C(=O)c2ccc(F)cc2)cc1)C(=O)N1CCOCC1 (configuration not stated),"inconclusive: 29.1 µM [cytotoxic, single point]"
14,CCCCC1(Br)C(=O)N(c2ccccc2)N(c2ccccc2)C1=O,"inconclusive: 25.9 µM [cytotoxic, single point]"
15,COc1ccc(CNC(=O)c2cc3cc4ccc(C)cc4nc3o2)cc1,inactive
16,CC1CN(c2ccc([N+](=O)[O-])cc2Cl)CCN1S(C)(=O)=O (configuration not stated),"inconclusive: 23.1 µM [cytotoxic, single point]"
17,Cc1nc(-c2cccc(F)c2)sc1CCNC(=O)c1c(F)cccc1Cl,inactive
18,OCc1ccccc1-c1cccc2nccn12,inactive
19,O=C(NCCN1C(=O)S/C(=C\c2ccc(F)cc2)C1=O)c1cccc(S(=O)(=O)N2CCOCC2)c1,"inconclusive: 20.6 µM [cytotoxic, single point]"
20,O=C1C=C(NCc2ccncc2)CC(c2ccccc2)C1 (configuration not stated),inactive
21,O=S(=O)(c1cccc(-c2nc3ccccc3s2)c1)N1CCOCC1,active: 16.4 µM
22,Cc1cccc(C)c1NC(=O)COC(=O)c1cccc2c1C(=O)c1ccccc1C2=O,"inconclusive: 29.1 µM [cytotoxic, single point]"
23,Cc1cc(C2(c3ccc(O)c(C)c3)C(=O)Nc3ccccc32)ccc1O,inactive
24,Cc1cc(C)cc(NC(=O)c2cccc(NC(=O)C3C4CC5OC(=O)C3C5C4)c2)c1 (configuration not stated),"inconclusive: 16.4 µM [cytotoxic, single point]"

row,SMILES,Potency
1,Clc1ccccc1N1CCN(Cc2c[nH]c3ccccc23)CC1,"inconclusive: 18.4 µM [cytotoxic, single point]"
2,COc1cccc(-n2sc3c(c2=S)-c2cc(OC)ccc2NC3(C)C)c1,"inconclusive: 20.6 µM [cytotoxic, partial curve, poor fit]"
3,Nc1nonc1C(=O)NCCNS(=O)(=O)c1ccc(Br)cc1,inactive
4,CC1S/C(=N\N=C\c2cccc([N+](=O)[O-])c2)N(C(C)(C)C)C1=O (configuration not stated),"inconclusive: 32.6 µM [cytotoxic, single point]"
5,COc1cc(C(=O)Nc2ccc3c(c2)OCCO3)c(-n2cnnn2)cc1OC,"inconclusive: 3.66 µM [rising, partial curve, poor fit]"
6,COc1ccc(OC)c(S(=O)(=O)NCc2cn3c(C)csc3n2)c1,"inconclusive: 29.1 µM [rising, single point]"
7,CCCCNC(=O)c1cc(S(=O)(=O)N2CCCCC2)oc1C,"inconclusive: 23.1 µM [cytotoxic, partial curve]"
8,CCOC(=O)c1c(N)sc2c1CCC(CC)C2 (configuration not stated),"inconclusive: 32.6 µM [rising, partial curve, poor fit]"
9,COc1ccc(/C=N/NC(=O)c2[nH]ncc2Br)c(OC)c1,"inconclusive: 29.1 µM [cytotoxic, single point]"
10,Cc1ccsc1C(=O)NC(C)c1ccccc1 (configuration not stated),inactive
11,COc1ccc(NC(=O)CSCC(=O)N(C)Cc2ccc(Cl)c(Cl)c2)cc1,inactive
12,O=C(N/C(=C/c1ccc(F)cc1)C(=O)N1CCCCC1)c1ccco1,inactive
13,CN1CCC(=C2c3ccccc3CCc3sccc32)CC1,"inconclusive: 8.2 µM [cytotoxic, partial curve]"
14,Cc1ccc(CN2CCC2(C)C(=O)NC(C)C)cc1 (configuration not stated),"inconclusive: 29.1 µM [cytotoxic, partial curve, poor fit]"
15,Cc1nc2ccc(F)cc2cc1C(=O)NCc1ccco1,inactive
16,CC(NC(=O)C1CCN(S(=O)(=O)c2ccc(F)cc2)CC1)c1ccccc1 (configuration not stated),inactive
17,Cc1ccc(Cn2c(C)c(C(=O)NCc3cccs3)sc2=O)cc1,"inconclusive: 16.4 µM [cytotoxic, partial curve]"
18,CCCCNC(=O)Nc1ccccc1CC,inactive
19,O=c1cc(N2CCN(c3ccccc3Cl)CC2)[nH]c(=O)n1Cc1ccc(F)cc1,active: 20.6 µM
20,COc1ccc(Nc2ncc3c(n2)CC(c2ccc(C)cc2)CC3=O)cc1 (configuration not stated),"inconclusive: 14.6 µM [cytotoxic, partial curve]"
21,O=C(COC(=O)c1cccs1)Nc1ccc(F)c(F)c1,"inconclusive: 29.1 µM [rising, single point]"
22,COc1ccc(CCNC(=O)CN(Cc2ccc(Cl)cc2)S(C)(=O)=O)cc1,"inconclusive: 4.11 µM [cytotoxic, full curve]"
23,CCN1CCN(C(=O)C2(NC(=O)Nc3cccc(F)c3)CCCCC2)CC1,"inconclusive: 29.1 µM [rising, single point]"
24,Cc1ccccc1C(=O)NCCN1CCC(n2c(=O)[nH]c3ccccc32)CC1,inactive

# Looked up above.
# Entry for Cc1cc(N2CCOCC2)n2nc(-c3cccc(F)c3)cc2n1 under Potency: inconclusive: 18.4 µM [cytotoxic, single point]
# Entry for O=C(N/C(=C/c1ccc(F)cc1)C(=O)N1CCCCC1)c1ccco1 under Potency: inactive
# Entry for CC1S/C(=N\N=C\c2cccc([N+](=O)[O-])c2)N(C(C)(C)C)C1=O (configuration not stated) under Potency: inconclusive: 32.6 µM [cytotoxic, single point]
# Entry for CC1CN(c2ccc([N+](=O)[O-])cc2Cl)CCN1S(C)(=O)=O (configuration not stated) under Potency: inconclusive: 23.1 µM [cytotoxic, single point]

# (next part)

row,SMILES,Potency
1,Cn1c(CS(=O)Cc2c(Cl)cccc2Cl)nnc1SCc1ccc(Cl)cc1 (configuration not stated),active: 5.17 µM
2,CCc1ccc(NC(=O)C(C)Oc2nnc(-c3cccs3)c(-c3cccs3)n2)cc1 (configuration not stated),"inconclusive: 18.4 µM [cytotoxic, partial curve, poor fit]"
3,COc1ccc(-n2nc(C(=O)NCC(=O)NCCN(C)C)c3ccccc3c2=O)cc1,"inconclusive: 18.4 µM [rising, single point]"
4,CCn1c(SCc2nc3ccccc3s2)nc2cc(S(=O)(=O)N3CCOCC3)ccc21,"inconclusive: 29.1 µM [cytotoxic, single point]"
5,O=C(CSc1nnc(N2CCOCC2)n1-c1cccc(F)c1)N1CCN(c2ccccn2)CC1,"inconclusive: 16.4 µM [cytotoxic, partial curve, poor fit]"
6,COc1cccc(C(=O)Nc2nc3ccc(S(=O)(=O)N4CCCC4)cc3s2)c1,"inconclusive: 25.9 µM [cytotoxic, partial curve, poor fit]"
7,COc1cc2c(cc1OC)C(=O)CCC2,inactive
8,COc1ccccc1C(CCN(Cc1ccccc1)C(C)=O)c1ccco1 (configuration not stated),"inconclusive: 14.6 µM [cytotoxic, partial curve]"
9,Cc1cc(OCC(O)CN(C)C(=O)C(C)Oc2ccccc2)ccc1Cl (configuration not stated),"inconclusive: 18.4 µM [cytotoxic, single point]"
10,CC(C)c1ccc(NC(=O)CSC2=Nc3ccccc3C3=NC(CC(=O)NCc4cccs4)C(=O)N23)cc1 (configuration not stated),inactive
11,CC(=O)Nc1ccc(S(=O)(=O)N2CCN=C2SCc2ccccc2C)cc1,"inconclusive: 18.4 µM [cytotoxic, single point]"
12,CCOC(=O)NC(=O)/C(C#N)=C(/C)N(C)C,"inconclusive: 20.6 µM [rising, single point]"
13,N=c1n(CCCOc2ccccc2Cl)c2ccccc2n1CC(N)=O,inactive
14,CCc1ccc(C(C)NC(=O)C2CCCO2)cc1 (configuration not stated),"inconclusive: 0.0082 µM [rising, full curve]"
15,CCCNC(=O)C1CCN(c2cc(-c3ccccc3)nc3ncnn23)CC1,"inconclusive: 29.1 µM [rising, single point]"
16,COc1ccc(NC(=S)N2CCN(c3ccc([N+](=O)[O-])cc3)CC2)cc1OC,"inconclusive: 18.4 µM [cytotoxic, partial curve]"
17,CC(C)(C)C1CCc2onc(C(=O)NCc3ccc(F)cc3)c2C1 (configuration not stated),"inconclusive: 18.4 µM [cytotoxic, single point]"
18,O=C1CSC2(C(=O)N(Cc3ccccc3F)c3ccccc32)N1c1cccc(C(F)(F)F)c1 (configuration not stated),active: 8.2 µM
19,COc1ccc(N2c3ccccc3CN(Cc3ccccc3)[C@@H](C)[C@H]2Cc2cccnc2)cc1,inactive
20,O=C(CC(c1ccccc1)C1CCCCC1=O)c1ccccc1 (configuration not stated),inactive
21,COc1cccc(Nc2nc(C(N)Cc3ccc(Cl)cc3)cs2)n1 (configuration not stated),inactive
22,CCCn1c2ccccc2c2cnn(CC(=O)NCCCN3CCCCC3)c(=O)c21,inactive
23,CN1C=CC2=C(C#N)C(N)C(C#N)(C#N)C(c3ccccc3)C2C1 (configuration not stated),active: 14.6 µM
24,Cc1cccc(COCC(CC(C)C)N2CCN(C(=O)c3ccc(C(C)(C)C)cc3)CCC2=O)c1 (configuration not stated),"inconclusive: 18.4 µM [cytotoxic, single point]"
